# The list shows a part of the results.
# Tested on: T1, CTL2-GFP (C. trachomatis L2/434/Bu, GFP-expressing)
# T1 construct: L2/434/Bu, GFP-expressing
# Design: species or system HeLa; Intracellular C. trachomatis growth in HeLa cells, bulk GFP fluorescence relative to DMSO
# Conditions: bulk GFP, single well; 28.5 h, 10 µM; inhibitor
row,Structure (SMILES),% of control remaining [%]
1,CC(C)n1c(=O)n(CC(=O)NC2CCCC2)c2cccnc21 [CBK283700],143.772
2,Cc1ccc(C2(C(=O)NCCCn3ccnc3C)CCOCC2)cc1 [CBK281588],137.933
3,CCOC(=O)c1c(NC(=O)CSc2nnc(C)s2)sc2c1CCC2 [CBK263183],134.41
4,O=C(O)c1ccc(CSc2nc(-c3ccccc3)cc(C(F)(F)F)n2)o1 [CBK269514],133.241
5,CNC(=O)C1(Cc2ccc(-c3ccccc3)cc2)CCN(C(=O)CC2CCCCC2)CC1 [CBK285763],90.1982
6,O=C(NCCc1c[nH]c2ccccc12)N1CCN(Cc2ccccc2)CC1 [CBK155646],152.417
7,COCCN1C(=O)c2ccc(C(=O)Nc3cc(C(=O)O)cc(C(=O)O)c3)cc2C1=O [CBK268444],116.063
8,CN(C)c1ncc(-c2ccc(Cl)cc2)c(C2CCCN2C(=O)CN2CCCC2)n1 (centres unmarked) [CBK286037],136.275
9,CC(=O)N1CCC[C@H]2NC(=O)CNC(=O)C3(C/C=C/C[C@H]21)CCN(CC(N)=O)CC3 [CBK292135],140.329
10,COc1ccccc1OCC(=O)NCc1ccc(-c2csnn2)cc1 [CBK149303],118.167
11,CCOC(=O)c1cc(-c2cccc(Cl)c2)oc1C [CBK045775],157.8
12,COc1ccc(Cl)cc1S(=O)(=O)N(C)CC(=O)O [CBK269919],141.135
13,CCc1nc(CC(=O)NC(c2ccc(F)cc2)C2CCCO2)cs1 (centres unmarked) [CBK306336],86.1449
14,CC(=C\C(=O)O)/C(=C\c1ccc(Br)cc1)C(=O)O [CBK278280N],100
15,C=C1S/C(=N\c2cc(Cl)cc(Cl)c2)NC1(CC)CC [CBK009484],77.3869
16,COc1ccc2c(c1)C=C(/C=C/C1=CCN(C)CC1)CO2 [CBK283818],165.7
17,COC(=O)c1ccc(N2CCN(Cc3ccc(CO)o3)C(C)C2)cc1 (centres unmarked) [CBK305394],103.834
18,CC1(C)CCN(Cc2nnnn2-c2ccc(S(C)(=O)=O)cc2)C1 [CBK306179],115.884
19,O=C1NC(c2ccccc2)=NC1(NS(=O)(=O)c1ccccc1)C(F)(F)F (centres unmarked) [CBK267474],137.022
20,CCCC(=O)N1CCC(C(=O)Nc2ccccc2F)CC1 [CBK304346],134.583
21,CC(C)NC(=O)C1(Cc2ccccc2-c2ccncc2)CCOCC1 [CBK284786],138.507
22,CN1CCN(c2ccc([N+](=O)[O-])c(NCCCO)c2)CC1 [CBK261846C],100
23,CC(C)c1cc(C(=O)N2CCCCCC2c2cnn(C)c2)no1 (centres unmarked) [CBK284971],82.964
24,CS(=O)(=O)c1ccc(CNC(=O)C2(c3ccccc3)CCCC2)cc1 [CBK161524],124.317
25,COc1ccc(N2CCN(CCNC(=O)Nc3ccc(Cl)cc3)CC2)cc1 [CBK268725],138.454
26,Cn1cnc(C(=O)N2CC[C@H]3NC(=O)c4ccccc4OCCCCC[C@H]3C2)c1 [CBK292031],128.478
27,CN1CC(=O)N2CCOC(C2)c2cccc(n2)NC(=O)C/C=C/CC2(CCNCC2)C1=O (centres unmarked) [CBK292053],127.609

# Given with tabs: entries from further up.
row	Structure (SMILES)	% of control remaining [%]
8	CN(C)c1ncc(-c2ccc(Cl)cc2)c(C2CCCN2C(=O)CN2CCCC2)n1 (centres unmarked) [CBK286037]	136.275
11	CCOC(=O)c1cc(-c2cccc(Cl)c2)oc1C [CBK045775]	157.8
19	O=C1NC(c2ccccc2)=NC1(NS(=O)(=O)c1ccccc1)C(F)(F)F (centres unmarked) [CBK267474]	137.022
25	COc1ccc(N2CCN(CCNC(=O)Nc3ccc(Cl)cc3)CC2)cc1 [CBK268725]	138.454

# Further entries

row,Structure (SMILES),% of control remaining [%]
1,Cc1cccnc1NS(=O)(=O)c1cccs1 [CBK299775],185.309
2,CN(C)c1cccc(Oc2nc3c(c(=O)n(C)c(=O)n3C)n2C)c1 [CBK270109],139.359
3,CCc1c(C)nc2ccccc2c1SC[C@H](NC(C)=O)C(=O)O [CBK153459T],112.187
4,CCS(=O)(=O)c1ccc2cc(C(=O)O)[nH]c2c1 [CBK286951],112.208
5,O=C(O)C1C2C=CC(O2)C1C(=O)Nc1ccc2c(c1)OCO2 (centres unmarked) [CBK265475],92.7004
6,CNC(=O)N(O)C1N(NC(=O)Nc2ccccc2)C(=S)SC1(C)C (centres unmarked) [CBK261005],114.817
7,Cc1csc2ncc(C(=O)Nc3ccccc3C(F)(F)F)c(=O)n12 [CBK287456],105.333
8,O=c1c2ccccc2nc(CSc2ncnc3[nH]cnc23)n1-c1ccc(Cl)c(Cl)c1 [CBK217854],123.504
9,CCOc1ccc2[nH]c(=O)c(/C=C3\SC(=S)N(CCC(=O)O)C3=O)cc2c1 [CBK265213],100
10,COc1nnc(-c2ccc(N3CCOCC3)c(NC(=O)COc3cccc(C)c3)c2)c2ccccc12 [CBK266207],149.599
11,Cn1c(SCC(=O)Nc2ccnc3ccccc23)nnc1-c1ccncc1 [CBK267867],80.7389
12,COc1cc(OC)c(CN(C)CCN(C)C)cc1Br [CBK021255],102.082
13,CCNC(=O)C1(Cc2ccccc2-c2ccccc2)CCN(C(=O)c2ccccc2)CC1 [CBK285700],98.7631
14,O=c1cc(O)c2c(=O)n(-c3ccccc3)c(-c3ccccc3)cc2o1 [CBK006116],108.795
15,CC1=C(C)CC(C(=O)NC(C)CCc2ccccc2)C(C(=O)O)C1 (centres unmarked) [CBK265452],100
16,Cc1ccc(S(=O)(=O)Nn2cnnc2)cc1 [CBK027263],147.982
17,NC(=O)CN1C(=O)CO[C@H]2CN(Cc3ccccc3F)C[C@H]21 [CBK289693],100.2
18,O=C(NC(c1ccccc1)c1ccccn1)c1ccco1 (centres unmarked) [CBK144109],90.8313
19,Cc1nn(C(C)C)c(C)c1CN(Cc1ccccn1)Cc1ccco1 [CBK283221],83.8324
20,O=C(CSCc1nc2ccccc2[nH]1)Nc1ccc2ccccc2c1 [CBK263262],99.9535
21,c1ccc2cc(-c3cc(Nc4ccc(N5CCOCC5)cc4)ncn3)ccc2c1 [CBK090929],204.733
22,Cc1ccc(S(=O)(=O)NCC(=O)O)c2nsnc12 [CBK261140],110.97
23,COc1ccc(OC)c(C(=O)N2CCNC(=O)C2Cc2ccccc2-c2ccc(F)cc2)c1 (centres unmarked) [CBK285829],126.259
24,CC(C)(C)OC(=O)N1CCC2(CC1)NC(=O)c1cc(-c3cccnc3)ccc1O2 [CBK083517],79.7334
25,Cc1cc(C(=O)Nc2cc(-c3nc4ncccc4o3)ccc2Cl)ccc1[N+](=O)[O-] [CBK268700],118.257
26,COC(=O)Cn1c(=N)n(CCN2CCOCC2)c2ccccc21 [CBK262447B],107.75
27,Cc1cccc(C(=O)N2CCN(Cc3nc4ccccc4[nH]3)CC2)c1 [CBK304399],119.578

row,Structure (SMILES),% of control remaining [%]
1,COCCN(Cc1cnn(C)c1)C(=O)Cc1ccccn1 [CBK306576],82.0918
2,O=C(Nn1cnnc1)c1ccccc1CCc1ccccc1 [CBK268578],130.561
3,COC(=O)c1c(C)c(C(C)=O)n(C)c1C [CBK012459],103.56
4,Cc1nc(C(=O)N(C)C(C)c2cc3ccccc3o2)nn1-c1ccc(F)cc1 (centres unmarked) [CBK296657],109.067
5,Cn1ncc2c1CCCN(C(=O)Cc1ccc3c(c1)CCCO3)C2 [CBK282253],121.447
6,CNC(=O)c1ccc(-c2ccc(CNC(=O)CCc3cccc(Cl)c3)cc2)nc1C [CBK286015],121.347
7,COc1ccc(OC)c(NC(=S)NCCN2CCOCC2)c1 [CBK264927],117.489
8,Nc1ccc(C(=O)Oc2ccc(Oc3ccccc3)cc2)cc1 [CBK083570],125.906
9,O=C(NC(Cc1ccccc1)C(=O)O)c1ccc(Cl)cc1 (centres unmarked) [CBK264677],122.258
10,Cc1cccc2sc(NC(=O)C3COc4ccccc4O3)nc12 (centres unmarked) [CBK287367],69.4898
11,CS(=O)(=O)N/N=C/c1ccc(Cl)cc1Cl [CBK026420],118.393
12,CCC(=O)Nc1ccc(-c2csc(N3CCC(C)CC3)n2)cc1 [CBK306490],115.547
13,CC1=NN(c2ccc(S(=O)(=O)O)cc2)C(=O)/C1=C/C=C/c1c(C)nn(-c2ccc(S(=O)(=O)O)cc2)c1O [CBK278317K],100.603
14,COc1ccc(CNC(N)=O)cc1 [CBK013588],141.236
15,O=C1N[C@H]2CCCN(C(=O)c3cncs3)[C@H]2CCCCCOc2ccccc21 [CBK292106],101.798
16,Cc1ccc(S(=O)(=O)N2CCC3(CC2)OCCO3)cc1Cl [CBK043731],98.4698
17,CC(C)NC(=O)[C@H]1O[C@H](CCN2CCN(c3ccc(F)cc3)CC2)CC[C@@H]1O [CBK288721],115.173
18,CC(=O)c1ccc(-n2ncc(-c3ccc(F)cc3)n2)cc1 [CBK112889],100
19,OC(CNC1CCN(Cc2ccccc2)CC1)COc1ccc2c(c1)OCO2 (centres unmarked) [CBK074645],109.281
20,O=c1oc(-c2ccoc2)nn1Cc1ccccc1F [CBK283726],139.475
21,OC(CNCCc1ccccc1)COc1c(Br)cccc1Br (centres unmarked) [CBK003071],100.606
22,COc1ccc([C@]23CN(C)C[C@H]2CCN(C(=O)Nc2cccc(Cl)c2)C3)cc1OC [CBK075104T],111.571
23,CCCC1(C)CCCN(Cc2nnnn2-c2ccc(S(C)(=O)=O)cc2)C1 (centres unmarked) [CBK304133],125.797
24,CN(C)Cc1cc(C[C@@H]2C[C@H](NCc3ccccn3)C2(C)C)no1 [CBK289313],140.602
25,CNCCc1ccccc1Sc1ccccc1 [CBK027155G],129.027
26,Cc1nn(CC(C)C(=O)N2CCCC(CN(C)C)C2)c(C)c1Cl (centres unmarked) [CBK282186],124.003

# — paper PMC12040169 (PLOS Biology, 2025)
